{
  "source": "patent US20120245123A1",
  "about": "“METHODS FOR IMPROVING BONE HEALTH IN INFANTS USING PREBIOTICS” (ABBOTT LABORATORIES, priority 2011, published 2012)",
  "assay": "Maternal diet supplementation of pregnant and lactating rats: offspring body weight",
  "format": "in vivo, Sprague-Dawley rats",
  "conditions": "mean±SEM",
  "data": [
    {"smiles": "O=C([O-])[O-].[Ca+2]", "note": "[Calcium, calcium carbonate]", "values": [
      {"measurement": "body weight of pups at delivery", "setting": "pups at delivery, p<0.05 vs Control group (8.65±0.12 g)", "value": "8.24 ± 0.10", "unit": "g"},
      {"measurement": "body weight of pups at weaning", "setting": "pups at weaning (25-day-old), p<0.05 vs Control group (72.2±1.3 g)", "value": "62.0 ± 0.9", "unit": "g"}
    ]}
  ]
}
